PubChem BioAssay AID1259405 | NCATS | 2018
The deposit covers about 50,000 reagents; this is a random part of them. About 4,000 of all reagents (8%) count as active. 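Mouse siRNA library applied to hamster cells; one well for each siRNA.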 Unmarked entries are inactive. The numbers tell different reagents against one gene apart.

Test: 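Knock-downs that lift recombinant protein yield in hamster ovary cells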 (primary screen)
System: Chinese hamster CHO-K1 ovary cells with stable secreted eGFP expression
Reagent: single siRNA against mouse genes, 0.8 pmol siRNA per well (2 µl of 400 nM stock)
Timing: 3 days
Read-out: 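Per-well intracellular GFP measured by laser scanning cytometry, plus viability from ATP luminescence, each relative to plate median of non-targeting control wells, in %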
Direction: GFP, % of control: higher = more GFP per well, higher productivity; viability (ATP), % of control: higher = more viable cells (more ATP)
Active means: 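Called active when intracellular GFP, relative to negative control, is at or above 120%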

Fam234b #1 → GFP, % of control: 50; viability (ATP), % of control: 54.1
Fam234b #2 → GFP, % of control: 76.2; viability (ATP), % of control: 77.6
Fam234b #3 → GFP, % of control: 90.8; viability (ATP), % of control: 75.3
Lonp1 #1 → GFP, % of control: 53.3; viability (ATP), % of control: 71.2
Lonp1 #2 → GFP, % of control: 74.2; viability (ATP), % of control: 78
Lonp1 #3 → GFP, % of control: 69.9; viability (ATP), % of control: 68.1
Pdgfd #1 → GFP, % of control: 58.2; viability (ATP), % of control: 68.1
Pdgfd #2 → GFP, % of control: 157 (active); viability (ATP), % of control: 106
Pdgfd #3 → GFP, % of control: 63.9; viability (ATP), % of control: 117
Wasf1 #1 → GFP, % of control: 81.9; viability (ATP), % of control: 64.5
Wasf1 #2 → GFP, % of control: 99.3; viability (ATP), % of control: 66.8
Wasf1 #3 → GFP, % of control: 62.8; viability (ATP), % of control: 78.4
Noto #1 → GFP, % of control: 102; viability (ATP), % of control: 59.2
Noto #2 → GFP, % of control: 56.6; viability (ATP), % of control: 86.7
Glg1 #1 → GFP, % of control: 55.4; viability (ATP), % of control: 55
Glg1 #2 → GFP, % of control: 54.4; viability (ATP), % of control: 60.6
Glg1 #3 → GFP, % of control: 59.7; viability (ATP), % of control: 52.8
Romo1 #1 → GFP, % of control: 155 (active); viability (ATP), % of control: 102
Romo1 #2 → GFP, % of control: 69.3; viability (ATP), % of control: 65.6
Romo1 #3 → GFP, % of control: 65.9; viability (ATP), % of control: 98.1
Mpg #1 → GFP, % of control: 104; viability (ATP), % of control: 81.4
Mpg #2 → GFP, % of control: 66.3; viability (ATP), % of control: 67.3
Mpg #3 → GFP, % of control: 59.2; viability (ATP), % of control: 57.1
Nfe2l3 #1 → GFP, % of control: 94.9; viability (ATP), % of control: 85.9
Nfe2l3 #2 → GFP, % of control: 68.8; viability (ATP), % of control: 77
Nfe2l3 #3 → GFP, % of control: 88.7; viability (ATP), % of control: 117
Cox4i1 #1 → GFP, % of control: 79.3; viability (ATP), % of control: 86.9
Cox4i1 #2 → GFP, % of control: 36.6; viability (ATP), % of control: 32.2
Cox4i1 #3 → GFP, % of control: 88.1; viability (ATP), % of control: 73.6

In a second layout: entries from further up
{"gene knocked down":"Fam234b","siRNA no.":1,"GFP, % of control":50,"viability (ATP), % of control":54.1}
{"gene knocked down":"Fam234b","siRNA no.":2,"GFP, % of control":76.2,"viability (ATP), % of control":77.6}
